# Most entries show no effect beyond the scatter of the controls.
# Assays:
# Test in all cases: normalised response (% of control), CellTox Green; higher = less cell death (100 = DMSO, 0 = benzethonium chloride kill control)
# Details in all cases: incubation time: 72 h
# HCC1599 = test system: HCC1599
# Protocol: (§1)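 DSRT, 72 h incubation, CellTox Green / CellTiter-Glo readout. Signal is normalised to DMSO and benzethonium chloride controls. Value is the normalised response at dose 2.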
# CAL-120 = test system: CAL-120
# Protocol: as §1
# MDA-MB-436 = test system: MDA-MB-436
# Protocol: as §1
# CAL-85-1 = test system: CAL-85-1
# Protocol: as §1
# CAL-51 = test system: CAL-51
# Protocol: as §1
# DU-4475 = test system: DU-4475
# Protocol: as §1
# CAL-148 = test system: CAL-148
# Protocol: as §1
# BT-474 = test system: BT-474
# Protocol: as §1
# BT-549 = test system: BT-549
# Protocol: as §1
# MCF-10A = test system: MCF-10A
# Protocol: as §1
# MDA-MB-453 = test system: MDA-MB-453
# Protocol: as §1
# MDA-MB-231 = test system: MDA-MB-231
# Protocol: as §1
# MFM-223 = test system: MFM-223
# Protocol: as §1
# MDA-MB-468 = test system: MDA-MB-468
# Protocol: as §1
# Hs578T = test system: Hs578T
# Protocol: as §1
# HDQ-P1 = test system: HDQ-P1
# Protocol: as §1
# HCC1143 = test system: HCC1143
# Protocol: as §1
# HCC1937 = test system: HCC1937
# Protocol: as §1
Structure (SMILES),normalised response (HCC1599),normalised response (CAL-120),normalised response (MDA-MB-436),normalised response (CAL-85-1),normalised response (CAL-51),normalised response (DU-4475),normalised response (CAL-148),normalised response (BT-474),normalised response (BT-549),normalised response (MCF-10A),normalised response (MDA-MB-453),normalised response (MDA-MB-231),normalised response (MFM-223),normalised response (MDA-MB-468),normalised response (Hs578T),normalised response (HDQ-P1),normalised response (HCC1143),normalised response (HCC1937)
Cc1cc(Nc2nc(N[C@@H](C)c3ncc(F)cn3)ncc2Cl)[nH]n1 [AZD1480] (1 nM),95.8%,102%,100%,98.8%,102%,96.2%,103%,98.8%,106%,99%,101%,95.3%,102%,86.3%,111%,115%,100%,–
CN1CC[C@H](c2c(O)cc(O)c3c(=O)cc(-c4ccccc4Cl)oc23)[C@H](O)C1 [Alvocidib] (10 nM),112%,106%,106%,91%,111%,113%,103%,102%,105%,100%,110%,–,101%,78.3%,92.9%,124%,100%,102%
CCC/C=C/C=C/C(=O)O[C@H]1/C(=C/C(=O)OC)C[C@H]2C[C@H]([C@@H](C)O)OC(=O)C[C@H](O)C[C@@H]3C[C@H](OC(C)=O)C(C)(C)[C@](O)(C[C@@H]4C/C(=C/C(=O)OC)C[C@H](/C=C/C(C)(C)[C@]1(O)O2)O4)O3 [Bryostatin 1] (0.1 nM),118%,108%,108%,97%,111%,117%,104%,104%,109%,95.2%,108%,110%,98.2%,–,69%,121%,112%,114%
CS(=O)(=O)OCCCCOS(C)(=O)=O [Busulfan] (100 nM),103%,99.9%,108%,91.8%,112%,97.3%,107%,76.5%,99.1%,107%,99.5%,97.4%,94.4%,92.7%,–,104%,–,118%
CC(C)C[C@H](NC(=O)[C@@H](COC(C)(C)C)NC(=O)[C@H](Cc1ccc(O)cc1)NC(=O)[C@H](CO)NC(=O)[C@H](Cc1c[nH]c2ccccc12)NC(=O)[C@H](Cc1cnc[nH]1)NC(=O)[C@@H]1CCC(=O)N1)C(=O)N[C@@H](CCCNC(=N)N)C(=O)N1CCC[C@H]1C(=O)NNC(N)=O [Goserelin] (10 nM),89.6%,96.6%,85.1%,106%,93%,93.3%,104%,102%,89.1%,87.8%,79.3%,99.1%,93.4%,137%,125%,–,–,98.2%
O=C(Cc1ccc(-c2ccc(OCCN3CCOCC3)cc2)cn1)NCc1ccccc1 [KX2-391] (10 nM),105%,103%,110%,97.7%,95.6%,106%,110%,96.5%,94.5%,114%,99.2%,–,92.4%,91.9%,125%,–,108%,98.9%
COc1ccc(C2=N[C@@H](c3ccc(Cl)cc3)[C@@H](c3ccc(Cl)cc3)N2C(=O)N2CCNC(=O)C2)c(OC(C)C)c1 [Nutlin-3] (10 nM),98.4%,102%,93.3%,104%,104%,101%,54%,97.3%,96.8%,95.3%,98.9%,–,89%,100%,76.8%,104%,111%,96.6%
O=C(O)C(=O)O.[NH-][C@@H]1CCCC[C@H]1[NH-].[Pt+2] [Oxaliplatin] (10 nM),94.8%,97.6%,94.7%,90.8%,97.4%,92.2%,105%,96.8%,94.8%,105%,–,80.6%,99.2%,124%,111%,116%,–,95.5%
CNNCc1ccc(C(=O)NC(C)C)cc1 [Procarbazine] (10 nM),92.2%,90.8%,104%,101%,97%,96.8%,111%,103%,111%,104%,96.5%,113%,101%,108%,122%,96.9%,–,92.5%
O=C(c1ccc(OCCN2CCCCC2)cc1)c1c(-c2ccc(O)cc2)sc2cc(O)ccc12 [Raloxifene] (10 nM),103%,101%,57.2%,101%,99%,98.6%,112%,103%,102%,100%,94%,114%,104%,80.3%,110%,112%,106%,–

# Full records, looked up by structure. Order of values: normalised response (HCC1599) | normalised response (CAL-120) | normalised response (MDA-MB-436) | normalised response (CAL-85-1) | normalised response (CAL-51) | normalised response (DU-4475) | normalised response (CAL-148) | normalised response (BT-474) | normalised response (BT-549) | normalised response (MCF-10A) | normalised response (MDA-MB-453) | normalised response (MDA-MB-231) | normalised response (MFM-223) | normalised response (MDA-MB-468) | normalised response (Hs578T) | normalised response (HDQ-P1) | normalised response (HCC1143) | normalised response (HCC1937)
# CN1CC[C@H](c2c(O)cc(O)c3c(=O)cc(-c4ccccc4Cl)oc23)[C@H](O)C1 [Alvocidib] (10 nM) in the list: 112% | 106% | 106% | 91% | 111% | 113% | 103% | 102% | 105% | 100% | 110% | – | 101% | 78.3% | 92.9% | 124% | 100% | 102%
# O=C(Cc1ccc(-c2ccc(OCCN3CCOCC3)cc2)cn1)NCc1ccccc1 [KX2-391] (10 nM) in the list: 105% | 103% | 110% | 97.7% | 95.6% | 106% | 110% | 96.5% | 94.5% | 114% | 99.2% | – | 92.4% | 91.9% | 125% | – | 108% | 98.9%

# Reference: the supplement of paper PMC4862054
